In article PMC5020693:
These are yes or no findings as the source states them, for the method shown. In cells and extracts the contact can be indirect. Some binding calls cover weakened binding; strength is not graded here.

Target: T1, FAS (human (endogenous in HT29)), P25445
T1 chain: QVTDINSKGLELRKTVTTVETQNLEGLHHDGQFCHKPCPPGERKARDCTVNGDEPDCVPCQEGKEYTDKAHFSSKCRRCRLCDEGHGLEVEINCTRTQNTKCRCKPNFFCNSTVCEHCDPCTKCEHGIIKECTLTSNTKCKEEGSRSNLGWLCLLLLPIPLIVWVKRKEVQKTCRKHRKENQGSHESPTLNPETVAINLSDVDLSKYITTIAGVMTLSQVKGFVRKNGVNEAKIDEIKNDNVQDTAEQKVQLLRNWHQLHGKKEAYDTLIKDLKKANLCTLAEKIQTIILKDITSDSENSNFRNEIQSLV
Assay: co-IP; FAS immunocomplex from whole cell lysate of crocetin-treated HT29 cells purified with anti-FAS antibody and protein A-Sepharose beads; immunoblotted with anti-FADD antibody
Conditions: remark: other sources report otherwise

B1: FAS-associated death domain protein (FADD), Q13158 1-208 (protein)
chain: MDPFLVLLHSVSSSLSSSELTELKFLCLGRVGKRKLERVQSGLDLFSMLLEQNDLEPGHTELLRELLASLRRHDLLRRVDDFEAGAAAGAAPGEEDLCAAFNVICDNVGKDWRRLARQLKVSDTKIDSIEDRYPRNLTERVRESLRIWKNTEKENATVAHLVGALRSCQMNLVADLVQEVQQARDLQNRSGAMSPMSWNSDASTSEAS
  binding: binds
